No constants are given. Whether binding was seen depends on the method and setting. In cells and extracts the contact can be indirect. A yes stands for co-enrichment or nearness to the bait. Other partners may have been found. Each block holds one molecule with its values, some of them ahead of it.
Assays:
Experiment in all cases: affinity purification with mass spectrometry; tandem affinity purification of TAP-tagged bait from cycling S. pombe cells (IPP150 buffer: 50 mM Tris pH 8.0, 150 mM NaCl, 10% glycerol, 0.1% NP-40; IgG Sepharose, TEV cleavage, Calmodulin Sepharose, EGTA elution), LC-MS/MS; wild-type cells, also Gih35-TAP from wdr83Δ cells and Wdr83-TAP from gih35Δ cells
[1] = molecular target: Gpl1-TAP (S. pombe) (UniProt Q9HE07)
[2] = molecular target: T1, Gih35-TAP (S. pombe) (UniProt Q9HE06)
T1 sequence: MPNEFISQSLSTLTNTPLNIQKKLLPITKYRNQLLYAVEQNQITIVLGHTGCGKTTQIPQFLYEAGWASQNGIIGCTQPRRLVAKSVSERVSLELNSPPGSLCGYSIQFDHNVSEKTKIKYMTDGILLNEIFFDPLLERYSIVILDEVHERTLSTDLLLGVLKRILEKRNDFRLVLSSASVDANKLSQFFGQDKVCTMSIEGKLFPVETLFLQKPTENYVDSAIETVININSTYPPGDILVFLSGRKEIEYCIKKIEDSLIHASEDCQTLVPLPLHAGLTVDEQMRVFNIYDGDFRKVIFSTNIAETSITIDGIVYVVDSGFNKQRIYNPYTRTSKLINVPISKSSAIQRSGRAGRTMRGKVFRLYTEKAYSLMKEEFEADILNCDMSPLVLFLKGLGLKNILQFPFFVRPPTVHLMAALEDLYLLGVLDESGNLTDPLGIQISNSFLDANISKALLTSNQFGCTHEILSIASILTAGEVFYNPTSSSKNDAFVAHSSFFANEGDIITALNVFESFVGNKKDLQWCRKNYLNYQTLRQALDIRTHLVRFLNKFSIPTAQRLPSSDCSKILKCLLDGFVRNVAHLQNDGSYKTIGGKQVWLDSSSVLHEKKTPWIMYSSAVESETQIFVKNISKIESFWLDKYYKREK

The chains behind the UniProt entries cited, without tags or fusion partners. Where a name states a change or a piece, a line headed by the entry shows the natural chain unless it says otherwise.
UniProt Q9HE07: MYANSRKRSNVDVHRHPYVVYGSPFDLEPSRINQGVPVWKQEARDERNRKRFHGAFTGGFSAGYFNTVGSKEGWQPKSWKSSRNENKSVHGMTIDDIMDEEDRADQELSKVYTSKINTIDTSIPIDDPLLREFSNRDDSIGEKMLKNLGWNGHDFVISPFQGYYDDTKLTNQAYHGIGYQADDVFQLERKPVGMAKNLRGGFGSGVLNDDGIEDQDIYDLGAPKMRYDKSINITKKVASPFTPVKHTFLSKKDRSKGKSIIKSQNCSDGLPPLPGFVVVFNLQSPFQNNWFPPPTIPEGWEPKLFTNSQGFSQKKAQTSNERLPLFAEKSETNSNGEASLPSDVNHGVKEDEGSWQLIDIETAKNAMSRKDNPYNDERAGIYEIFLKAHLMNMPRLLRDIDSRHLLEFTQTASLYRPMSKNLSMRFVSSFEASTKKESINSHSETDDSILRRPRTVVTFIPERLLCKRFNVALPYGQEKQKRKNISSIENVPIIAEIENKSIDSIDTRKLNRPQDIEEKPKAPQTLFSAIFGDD
UniProt O14187: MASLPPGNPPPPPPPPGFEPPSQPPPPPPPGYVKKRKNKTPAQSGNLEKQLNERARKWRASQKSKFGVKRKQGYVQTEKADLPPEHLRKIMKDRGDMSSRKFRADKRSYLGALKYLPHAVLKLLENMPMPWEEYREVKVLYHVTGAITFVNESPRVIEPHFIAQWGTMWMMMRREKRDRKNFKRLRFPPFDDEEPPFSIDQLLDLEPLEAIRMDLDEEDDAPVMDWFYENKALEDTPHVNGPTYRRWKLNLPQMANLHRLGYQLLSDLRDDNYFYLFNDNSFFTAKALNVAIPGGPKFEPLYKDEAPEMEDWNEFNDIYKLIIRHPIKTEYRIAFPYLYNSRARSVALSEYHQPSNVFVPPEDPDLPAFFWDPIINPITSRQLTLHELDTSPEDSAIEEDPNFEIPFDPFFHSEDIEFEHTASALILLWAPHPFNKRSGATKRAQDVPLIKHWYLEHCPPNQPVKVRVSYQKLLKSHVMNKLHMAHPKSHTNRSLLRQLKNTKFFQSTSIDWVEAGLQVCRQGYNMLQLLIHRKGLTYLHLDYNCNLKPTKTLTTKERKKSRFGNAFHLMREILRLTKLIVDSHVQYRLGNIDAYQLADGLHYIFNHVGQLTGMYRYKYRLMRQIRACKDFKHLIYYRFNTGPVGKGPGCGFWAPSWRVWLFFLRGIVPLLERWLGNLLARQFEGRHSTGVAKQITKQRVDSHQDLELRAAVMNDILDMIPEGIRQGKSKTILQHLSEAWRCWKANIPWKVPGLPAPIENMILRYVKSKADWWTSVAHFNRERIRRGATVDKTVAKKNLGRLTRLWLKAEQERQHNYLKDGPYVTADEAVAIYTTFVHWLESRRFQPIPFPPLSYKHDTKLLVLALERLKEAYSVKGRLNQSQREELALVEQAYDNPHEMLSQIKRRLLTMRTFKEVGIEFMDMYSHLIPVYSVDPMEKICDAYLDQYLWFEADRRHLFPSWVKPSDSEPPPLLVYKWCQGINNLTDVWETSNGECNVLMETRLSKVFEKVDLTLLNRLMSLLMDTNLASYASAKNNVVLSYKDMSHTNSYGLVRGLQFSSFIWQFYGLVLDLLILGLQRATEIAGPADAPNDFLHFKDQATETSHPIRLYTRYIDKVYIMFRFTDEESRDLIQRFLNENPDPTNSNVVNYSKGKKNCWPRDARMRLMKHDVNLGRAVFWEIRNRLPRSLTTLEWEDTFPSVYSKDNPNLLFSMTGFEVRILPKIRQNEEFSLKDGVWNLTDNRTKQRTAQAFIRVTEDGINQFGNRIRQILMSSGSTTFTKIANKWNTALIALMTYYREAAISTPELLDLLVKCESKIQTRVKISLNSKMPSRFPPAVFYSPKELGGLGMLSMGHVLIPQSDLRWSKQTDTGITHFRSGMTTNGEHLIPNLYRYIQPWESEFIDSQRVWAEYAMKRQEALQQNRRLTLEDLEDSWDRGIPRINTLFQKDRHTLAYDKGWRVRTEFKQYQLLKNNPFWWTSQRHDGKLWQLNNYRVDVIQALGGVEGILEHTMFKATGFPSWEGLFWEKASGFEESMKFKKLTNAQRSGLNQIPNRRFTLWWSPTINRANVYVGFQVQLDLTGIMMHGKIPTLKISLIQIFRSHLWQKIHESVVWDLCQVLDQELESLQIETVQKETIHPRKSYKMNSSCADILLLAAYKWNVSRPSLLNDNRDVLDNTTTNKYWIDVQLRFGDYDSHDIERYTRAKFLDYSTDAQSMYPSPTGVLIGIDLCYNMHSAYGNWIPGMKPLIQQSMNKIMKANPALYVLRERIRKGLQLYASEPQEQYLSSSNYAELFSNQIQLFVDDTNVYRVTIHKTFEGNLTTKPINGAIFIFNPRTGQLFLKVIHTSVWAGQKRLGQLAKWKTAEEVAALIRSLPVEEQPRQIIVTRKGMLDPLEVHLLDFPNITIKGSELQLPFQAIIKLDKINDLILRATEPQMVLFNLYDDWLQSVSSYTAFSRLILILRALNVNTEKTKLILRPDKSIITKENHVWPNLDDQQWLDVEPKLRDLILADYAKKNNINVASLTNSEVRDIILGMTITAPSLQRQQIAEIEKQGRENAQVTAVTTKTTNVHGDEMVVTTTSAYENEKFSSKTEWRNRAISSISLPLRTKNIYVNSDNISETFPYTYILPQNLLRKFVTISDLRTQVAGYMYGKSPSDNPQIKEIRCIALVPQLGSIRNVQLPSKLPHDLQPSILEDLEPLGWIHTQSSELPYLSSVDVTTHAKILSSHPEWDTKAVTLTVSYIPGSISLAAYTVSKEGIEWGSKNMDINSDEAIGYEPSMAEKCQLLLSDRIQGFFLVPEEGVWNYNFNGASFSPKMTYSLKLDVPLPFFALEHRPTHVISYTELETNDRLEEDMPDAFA
UniProt Q9UT24: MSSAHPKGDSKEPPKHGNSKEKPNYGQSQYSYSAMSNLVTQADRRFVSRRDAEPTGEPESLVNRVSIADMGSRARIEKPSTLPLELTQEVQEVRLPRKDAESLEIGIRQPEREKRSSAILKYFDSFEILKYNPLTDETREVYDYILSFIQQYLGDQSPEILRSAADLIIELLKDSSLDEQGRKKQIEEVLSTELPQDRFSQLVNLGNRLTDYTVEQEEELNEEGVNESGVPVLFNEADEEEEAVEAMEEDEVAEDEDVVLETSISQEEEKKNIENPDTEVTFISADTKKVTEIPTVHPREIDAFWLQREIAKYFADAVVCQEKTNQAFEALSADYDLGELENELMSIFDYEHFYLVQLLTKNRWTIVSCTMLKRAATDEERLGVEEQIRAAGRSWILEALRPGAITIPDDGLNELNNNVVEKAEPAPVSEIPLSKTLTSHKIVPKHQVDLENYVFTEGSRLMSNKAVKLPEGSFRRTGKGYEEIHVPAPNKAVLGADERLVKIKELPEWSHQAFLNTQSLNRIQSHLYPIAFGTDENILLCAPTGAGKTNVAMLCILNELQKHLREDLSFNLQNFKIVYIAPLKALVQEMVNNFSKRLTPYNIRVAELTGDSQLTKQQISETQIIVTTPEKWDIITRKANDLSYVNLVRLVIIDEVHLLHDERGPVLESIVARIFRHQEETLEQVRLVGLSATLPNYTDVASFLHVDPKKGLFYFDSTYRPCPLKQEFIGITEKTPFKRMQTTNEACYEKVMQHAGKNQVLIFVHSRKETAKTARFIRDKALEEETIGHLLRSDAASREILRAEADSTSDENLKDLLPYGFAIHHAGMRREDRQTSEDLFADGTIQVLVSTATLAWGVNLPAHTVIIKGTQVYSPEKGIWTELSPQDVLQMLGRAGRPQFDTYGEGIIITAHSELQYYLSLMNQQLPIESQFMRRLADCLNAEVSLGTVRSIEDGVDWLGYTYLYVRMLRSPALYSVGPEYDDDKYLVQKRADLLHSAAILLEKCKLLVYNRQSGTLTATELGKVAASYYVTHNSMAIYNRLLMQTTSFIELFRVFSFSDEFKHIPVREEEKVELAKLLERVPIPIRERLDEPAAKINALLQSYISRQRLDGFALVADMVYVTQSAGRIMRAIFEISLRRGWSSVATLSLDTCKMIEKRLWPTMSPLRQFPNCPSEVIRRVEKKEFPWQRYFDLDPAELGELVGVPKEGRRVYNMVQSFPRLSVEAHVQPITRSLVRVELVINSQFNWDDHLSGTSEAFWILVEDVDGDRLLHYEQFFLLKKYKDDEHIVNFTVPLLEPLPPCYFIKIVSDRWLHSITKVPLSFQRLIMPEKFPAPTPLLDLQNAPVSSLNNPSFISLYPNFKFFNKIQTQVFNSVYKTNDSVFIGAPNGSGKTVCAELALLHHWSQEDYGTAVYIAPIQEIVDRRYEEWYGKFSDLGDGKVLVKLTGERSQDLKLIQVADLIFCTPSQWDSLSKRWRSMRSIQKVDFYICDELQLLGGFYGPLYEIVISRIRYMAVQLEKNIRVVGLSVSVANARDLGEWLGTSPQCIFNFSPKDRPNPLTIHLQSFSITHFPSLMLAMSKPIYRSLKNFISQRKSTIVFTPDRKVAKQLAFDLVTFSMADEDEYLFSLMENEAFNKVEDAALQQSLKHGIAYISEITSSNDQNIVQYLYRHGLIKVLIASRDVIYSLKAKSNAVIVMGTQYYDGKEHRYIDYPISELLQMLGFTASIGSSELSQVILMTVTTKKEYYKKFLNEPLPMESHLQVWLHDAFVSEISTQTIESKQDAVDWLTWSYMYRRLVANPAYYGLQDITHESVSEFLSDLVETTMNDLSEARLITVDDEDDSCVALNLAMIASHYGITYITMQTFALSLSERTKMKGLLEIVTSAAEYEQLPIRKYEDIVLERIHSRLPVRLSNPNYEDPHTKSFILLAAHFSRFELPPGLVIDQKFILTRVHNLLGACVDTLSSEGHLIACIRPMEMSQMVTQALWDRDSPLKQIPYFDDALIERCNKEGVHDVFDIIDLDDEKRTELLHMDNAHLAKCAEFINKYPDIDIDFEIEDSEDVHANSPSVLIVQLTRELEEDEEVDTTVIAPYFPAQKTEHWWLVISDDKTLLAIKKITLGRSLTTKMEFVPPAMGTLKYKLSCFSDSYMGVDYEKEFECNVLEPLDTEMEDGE
UniProt O42945: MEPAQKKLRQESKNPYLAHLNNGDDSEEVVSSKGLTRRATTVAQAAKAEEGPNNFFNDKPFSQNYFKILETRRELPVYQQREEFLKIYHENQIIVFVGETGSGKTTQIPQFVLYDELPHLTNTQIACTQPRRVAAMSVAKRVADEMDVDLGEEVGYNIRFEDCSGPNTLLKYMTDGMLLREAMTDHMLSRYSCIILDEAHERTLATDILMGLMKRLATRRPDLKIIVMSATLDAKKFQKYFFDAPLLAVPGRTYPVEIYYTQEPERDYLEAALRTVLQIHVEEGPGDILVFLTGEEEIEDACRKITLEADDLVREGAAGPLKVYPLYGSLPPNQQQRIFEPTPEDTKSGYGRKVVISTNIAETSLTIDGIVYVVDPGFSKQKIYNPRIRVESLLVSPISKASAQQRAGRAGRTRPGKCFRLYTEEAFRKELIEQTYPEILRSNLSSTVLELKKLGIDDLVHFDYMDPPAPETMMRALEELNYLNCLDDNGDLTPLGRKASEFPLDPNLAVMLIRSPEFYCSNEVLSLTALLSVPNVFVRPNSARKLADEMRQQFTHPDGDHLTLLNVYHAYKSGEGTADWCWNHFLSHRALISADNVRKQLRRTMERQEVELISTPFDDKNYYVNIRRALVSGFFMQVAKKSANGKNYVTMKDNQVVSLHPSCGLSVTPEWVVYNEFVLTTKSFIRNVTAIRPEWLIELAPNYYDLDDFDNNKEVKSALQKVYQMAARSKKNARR

[3] = molecular target: Wdr83-TAP (S. pombe)

binding [1]: binds | binding [2]: binds
Molecule: U5 snRNP complex subunit Spp42 (from UniProt O14187 1-2363)

binding [1]: binds | binding [2]: binds
Molecule: U5 snRNP complex ATPase subunit Brr2 (from UniProt Q9UT24 1-2176)

binding [1]: binds | binding [2]: binds
Molecule: ATP-dependent RNA helicase Prp43 (from UniProt O42945 1-735)

binding [2]: binds
Molecule: Gpl1 (from UniProt Q9HE07)

binding [2]: binds
Molecule: ATP-dependent RNA helicase Mtl1 (S. pombe)

binding [1]: binds | binding [3]: binds | binding [2]: binds
B1: Prp19 complex subunit Cdc5 (protein, UniProt P39964 1-757)
chain: MVVLKGGAWKNTEDEILKAAVSKYGKNQWARISSLLVRKTPKQCKARWYEWIDPSIKKTEWSREEDEKLLHLAKLLPTQWRTIAPIVGRTATQCLERYQKLLDDLEAKENEQLGLISGEGAEAAAPVNDPNSRLRFGEAEPNLETLPALPDAIDMDEDEKEMLSEARARLANTQGKKAKRKDREKQLELTRRLSHLQKRRELKAAGINIKLFRRKKNEMDYNASIPFEKKPAIGFYDTSEEDRQNFREKREADQKIIENGIRNNEMESEGRKFGHFEKPKPIDRVKKPNKDAQEEKMRRLAEAEQMSKRRKLNLPSPTVSQDELDKVVKLGFAGDRARAMTDTTPDANYSTNLLGKYTQIERATPLRTPISGELEGREDSVTIEVRNQLMRNREQSSLLGQESIPLQPGGTGYTGVTPSHAANGSALAAPQATPFRTPRDTFSINAAAERAGRLASERENKIRLKALRELLAKLPKPKNDYELMEPRFADETDVEATVGVLEEDATDRERRIQERIAEKERLAKARRSQVIQRDLIRPSVTQPEKWKRSLENEDPTANVLLKEMIALISSDAINYPFGNSKVKGTANKVPDLSNEEIERCRLLLKKEIGQLESDDYIQFEKEFLETYSALHNTSSLLPGLVIYEEDDEDVEAAEKFYTNDIQRDLAKKALECNKLENRVYDLVRSSYEQRNFLIKKISHAWKALQTERKNLTCYEFLYNQERLALPNRLEAAEIELSKMQQIEAYAQQDYARVTGQN

binding [1]: binds
B2: Gih35 (protein, UniProt Q9HE06 1-647)
chain: T1 sequence

binding [1]: binds | binding [3]: binds | binding [2]: binds
B3: ubiquitin-protein ligase E4 Prp19 (protein, UniProt O14011 1-488)
chain: MFCSISGETPKEPVISRVSGNVYEKRLIEQVIRETSKDPVTQQECTLEDLVPVKVPDFVRPRPPSATSLPALLSLFQEEWDSVALEQFELRRNLTETKQELSTALYSLDAALRVISRLTKERDEAREALAKFSDNIGTVSSKTIEVQEVEMGESDDQLKTSLRSTVEKTFQELSSKRKRTKLQPKWATDDAVSQLLQATPSTILENLETESTTSFFPSPENSSFVLCLHKDELLCLDIQSNSTLKIFEGSALACCWLTSSKIAVATADAISIFEFPVSSSGLQSVGEPTSSIPIDEKVNFLQAHPSGEYLLAASNEKCYIFSLKSQVYNITVAQHITSLAVHPDGNLFVAGLENGELRFFETSSGNELTKFGPHSSPVKTLQFGENGYWLVVTTNDDSDIFIWDLRKSELVQKIPLQTKVAAVSLDITSQLLVSSDGETLYVHIYVKSSKSWRCMSQTHVSSISNLVWLNELHQLLFSTSNGAILRLG

binding [1]: binds | binding [3]: binds | binding [2]: binds
B4: ATP-dependent RNA helicase Prp22 (protein, UniProt O42643 1-1168)
chain: MDDLKELEYLSLVSKVASEIRNHTGIDDNTLAEFIINLHDQSKNYDEFKNNVLSCGGEFTDSFLQNISRLIKEIKPKDDIPTDNVNNGSNSVNGASHDLDSKDVDKQHQRKMFPGLSIPNSTNNLRDRPALMDNAMDELEELSTLAKTRRNDRDSRRDERHYLNGIRERRERSISPSFSHHSRTSISGQSHSSRSSRGPLLNAPTLYGIYSGVVSGIKDFGAFVTLDGFRKRTDGLVHISNIQLNGRLDHPSEAVSYGQPVFVKVIRIDESAKRISLSMKEVNQVTGEDLNPDQVSRSTKKGSGANAIPLSAQNSEIGHVNPLETFTSNGRKRLTSPEIWELQQLAASGAISATDIPELNDGFNTNNAAEINPEDDEDVEIELREEEPGFLAGQTKVSLKLSPIKVVKAPDGSLSRAAMQGQILANDRREIRQKEAKLKSEQEMEKQDLSLSWQDTMSNPQDRKFAQDVRDSAARQLTSETPSWRQATRNANISYGKRTTLSMKEQREGLPVFKLRKQFLEAVSKNQILVLLGETGSGKTTQITQYLAEEGYTSDSKMIGCTQPRRVAAMSVAKRVAEEVGCRVGEEVGYTIRFEDKTSRMTQIKYMTDGMLQRECLVDPLLSKYSVIILDEAHERTVATDVLFGLLKGTVLKRPDLKLIVTSATLDAERFSSYFYKCPIFTIPGRSYPVEIMYTKQPEADYLDAALMTVMQIHLSEGPGDILVFLTGQEEIDTSCEILYERSKMLGDSIPELVILPVYSALPSEIQSRIFEPAPPGGRKVVIATNIAETSLTIDGIYYVVDPGFVKQSCFDPKLGMDSLIVTPISQAQARQRSGRAGRTGPGKCYRLYTESAYRNEMLPSPIPEIQRQNLSHTILMLKAMGINDLLNFDFMDPPPAQTMIAALQNLYALSALDDEGLLTPLGRKMADFPMEPQLSKVLITSVELGCSEEMLSIIAMLSVPNIWSRPREKQQEADRQRAQFANPESDHLTLLNVYTTWKMNRCSDNWCYEHYIQARGMRRAEDVRKQLIRLMDRYRHPVVSCGRKRELILRALCSGYFTNVAKRDSHEGCYKTIVENAPVYMHPSGVLFGKAAEWVIYHELIQTSKEYMHTVSTVNPKWLVEVAPTFFKFANANQVSKTKKNLKVLPLYNRFEKPDEWRISKQRKGGR

binding [1]: binds | binding [3]: binds | binding [2]: binds
B5: U5 snRNP GTPase subunit Cwf10 (protein, UniProt O94316 1-984)
chain: MMEEDLYDEFGNYIGPENEEDEEELFPQAPSPTIAQVPSFEEVIPDEELEDVERAEEMALSHLEPQNAVVLHEDKQYYPSAEEVYGSNVDIMVQEQDTQPLSQPIIEPIRHKRIAIETTNVPDTVYKKEFLFGLLTGTDDVRSFIVAGHLHHGKSALLDLLVYYTHPDTKPPKRRSLRYTDTHYLERERVMSIKSTPLTLAVSDMKGKTFAFQCIDTPGHVDFVDEVAAPMAISDGVVLVVDVIEGVMINTTRIIKHAILHDMPIVLVLNKVDRLILELRLPPNDAYHKLRHVIDEVNDNICQISKDLKYRVSPELGNVCFASCDLGYCFTLSSFAKLYIDRHGGIDVDLFSKRLWGDIYFDSKTRKFAKQSLDGSGVRSFVHFILEPLYKLHTLTISDEAEKLKKHLSSFQIYLKPKDYLLDPKPLLQLICASFFGFPVGFVNAVTRHIPSPRENAARKASQSYIGPINSSIGKAILEMSREESAPLVMHVTKLYNTVDANNFYAFARVYSGQVKKGQKVKVLGENYSLEDEEDMVVAHIAEICVPCARYRLHVDGAVAGMLVLLGGVDNSISKTATIVSDNLKDDPYIFRPIAHMSESVFKVAVEPHNPSELPKLLDGLRKTNKSYPLSITKVEESGEHTIFGTGEMYMDCLLYDLRTLYSEIEIRVSDPVARFCETAVDTSSIKCFSDTPNKKNRITMVVEPLEKGISNDIENGKVNINWPQKRISEFFQKNYDWDLLASRSIWAFGPDDRGTNILRDDTLSTDVDKNVLNSVKEYIKQGFQWGTREGPLCDETIRNVNFRLMDVVLAPEQIYRGGGQIIPTARRVCYSSFLTASPRLMEPVYMVEVHAPADSLPIIYDLLTRRRGHVLQDIPRPGSPLYLVRALIPVIDSCGFETDLRVHTQGQAMCQMVFDHWQVVPGDPLDKSIKPKPLEPARGSDLARDFLIKTRRRKGLVEDVSTTRYFDQEMIDSLKEAGVVLSL

Reference: publication PMC9658070
